Data taken from PubChem BioAssay AID1487 (National Center for Advancing Translational Sciences (NCATS), 2009).
Some of the results follow. Further columns of the screen follow, without active or inactive calls. Most of these compounds were active or inconclusive in the main read-out, so they are no random draw. Potencies come from curve fits of mixed quality, noted in brackets.

Test: qHTS Assay for Modulators of Lamin A Splicing
Conditions: HeLa LMNA splicing GFP/RFP minigene ratio, 48 h
How it was run: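 S3 HeLa cells stably expressing lamin A-EGFP splicing minigene plus DsRed2, 600 cells/well, 48 h compound exposure at 37C. Laser-scanning cytometry; analysed as GFP (500-530 nm)/RFP (575-640 nm) total intensity ratio; 0.5% DMSO vehicle.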

[1] = measured here: GFP splicing reporter channel
[2] = measured here: RFP viability control channel

SMILES | AC50 [1] | AC50 [2]
CCN(CC)S(=O)(=O)c1cccc(-c2n[nH]c(=S)n2/N=C/c2ccc(OC)cc2)c1 | 22.4 µM [rising, single point] | –
CS(=O)(=O)N(CC(=O)NCCSc1ccccn1)c1cccc2ccccc12 | 15.8 µM [rising, partial curve, poor fit] | 11.2 µM [rising, partial curve, poor fit]
CCCn1c(-c2cccnc2Cl)nc2cc(Cl)c(Cl)cc21 | – | 22.4 µM [rising, single point]
CCCCC(=O)OC1=CN(Cc2ccccc2)S(=O)(=O)c2ccccc21 | – | 6.31 µM [rising, single point]
OCCCNC(=S)Nc1ccc(Nc2ccccc2)cc1 | – | 3.16 µM [rising, partial curve, poor fit]
CS(=O)(=O)N(Cc1ccccc1)c1ccccc1C(=O)N1CCN(c2ccccc2)CC1 | – | 11.2 µM [rising, single point]
Cc1cccc(C)c1-n1c(C)cc(/C=C2\C(=O)NN(c3ccccc3)C2=O)c1C | – | 17.8 µM [falling, single point]
CN(C)S(=O)(=O)c1ccc(Oc2ccccc2)cc1 | – | 35.5 µM [rising, single point]
COc1cc(C)c(C(C)C)cc1S(=O)(=O)n1cnc(C)c1 | – | 5.01 µM [rising, full curve]
O=C(NCCSCc1ccccc1)c1cc(S(=O)(=O)N2CCOCC2)ccc1F | – | 25.1 µM [rising, partial curve, poor fit]
O=C(/C=C/c1ccc(S(=O)(=O)N2CCOCC2)cc1)NC(=S)Nc1ccc(N2CCOCC2)cc1 | – | 12.6 µM [rising, partial curve]
Cc1nc(C(=O)Nc2ccccc2Cl)cc2c1[nH]c1ccccc12 | 7.08 µM [falling, partial curve] | 6.31 µM [falling, full curve]
CC(NCC(O)COCCC12CC3CC(CC(C3)C1)C2)c1ccccc1 (stereo unspecified) | 20 µM [falling, partial curve] | 11.2 µM [falling, partial curve]
O=C1CC(c2ccc(Cl)c([N+](=O)[O-])c2)c2ccc3ccccc3c2N1 (stereo unspecified) | 1 µM [rising, partial curve] | 14.1 µM [rising, partial curve]
COc1ccc(OCCN2C(=O)NC(C)(c3ccc(C)cc3)C2=O)cc1 (stereo unspecified) | – | 35.5 µM [rising, single point]
CC(C)(C)n1nnnc1C(c1cccc(C#N)c1)N1CCCc2ccccc21 (stereo unspecified) | 11.2 µM [rising, partial curve] | –
Cc1cccc(C(=O)NC(=S)NNC(=O)Cc2ccccc2)c1 | – | 17.8 µM [rising, single point]
Cc1noc(C)c1C(=O)Nc1nc(C23CC4CC(CC(C4)C2)C3)cs1 | – | 31.6 µM [rising, single point]
Cc1cc(Nc2cccc(Cl)c2)nc(N2CCOCC2)n1 | 4.47 µM [rising, partial curve] | 17.8 µM [rising, partial curve, poor fit]

Looked up above.
Entry of `O=C(NCCSCc1ccccc1)c1cc(S(=O)(=O)N2CCOCC2)ccc1F` under AC50 [2]: 25.1 µM [rising, partial curve, poor fit]
Entry of `CCCCC(=O)OC1=CN(Cc2ccccc2)S(=O)(=O)c2ccccc21` under AC50 [2]: 6.31 µM [rising, single point]

Further results:

SMILES | AC50 [1] | AC50 [2]
COCCn1c(SC(C)C(=O)Nc2ccc3c(c2)OCCO3)nc2ccccc2c1=O (stereo unspecified) | – | 3.98 µM [rising, single point]
COc1ccc(S(=O)(=O)n2nc(-c3ccco3)nc2NCc2ccc(C(C)C)cc2)cc1 | 3.16 µM [falling, single point] | 3.55 µM [falling, partial curve]
CCN(CC)C(=O)c1ccc(C(=O)c2c(C)cc(C)cc2C)cc1 | – | 31.6 µM [rising, single point]
Cc1ccc(C(=O)NCc2ccc(Cl)c(Cl)c2)o1 | 14.1 µM [rising, single point] | –
O=C(NCCCN1CCN(c2ccccc2F)CC1)c1ccc2nc(CCc3ccccc3)oc2c1 | 22.4 µM [falling, single point] | 17.8 µM [falling, single point]
O=S(=O)(Nc1ccc2ccccc2c1)c1ccccc1 | 11.2 µM [rising, single point] | 14.1 µM [rising, single point]
Brc1ccccc1-c1csnn1 | 3.55 µM [rising, partial curve] | 4.47 µM [rising, partial curve, poor fit]
c1ccc(Sc2ncnc3c2oc2ccccc23)cc1 | 28.2 µM [falling, single point] | –
Cc1ccc2[nH]c3c(N4CCN(Cc5ccc6c(c5)OCO6)CC4)ncnc3c2c1 | 3.16 µM [rising, full curve] | –
Cc1cc(C(=O)O)c(S(C)(=O)=O)s1 | – | 35.5 µM [falling, single point]
Cc1ccc(-c2nnc(N3CC(C)OC(C)C3)c3ccccc23)cc1 (stereo unspecified) | 11.2 µM [falling, partial curve, poor fit] | 0.0355 µM [falling, full curve, poor fit]
O=C(NNc1c2ccccc2nc2ccccc12)c1cc2ccccc2cc1O | – | 14.1 µM [rising, single point]
COCCn1c(CN2CCC(Cc3ccccc3)CC2)nc2c1c(=O)n(C)c(=O)n2C | – | 1.58 µM [rising, partial curve, poor fit]
CCN1CCN(C2=CC3=CC(=C(C#N)C#N)CCC3CC2)CC1 (stereo unspecified) | – | 4.47 µM [falling, full curve]
CN(C)c1ccc(-c2cncnc2N(C)Cc2ccco2)cc1 | 14.1 µM [falling, partial curve] | –
COc1ccccc1-c1ccc2ncnc(Nc3ccccc3)c2c1 | 12.6 µM [falling, partial curve] | 15.8 µM [falling, partial curve]
C=CCc1cccc(/C=C/c2cc(=O)c3ccccc3[nH]2)c1O | – | 7.94 µM [rising, partial curve]
Cc1cc(=O)oc2cc(O)ccc12 | 0.00398 µM [falling, full curve, poor fit] | 0.00447 µM [falling, full curve, poor fit]
CNC(=O)c1cc2c(cn1)[nH]c1ccccc12 | 0.0891 µM [rising, full curve, poor fit] | 6.31 µM [rising, partial curve, poor fit]

By substructure: those above containing a cyano group (two)
SMILES | AC50 [1] | AC50 [2]
CC(C)(C)n1nnnc1C(c1cccc(C#N)c1)N1CCCc2ccccc21 (stereo unspecified) | 11.2 µM [rising, partial curve] | –
CCN1CCN(C2=CC3=CC(=C(C#N)C#N)CCC3CC2)CC1 (stereo unspecified) | – | 4.47 µM [falling, full curve]

The list continues.

SMILES | AC50 [1] | AC50 [2]
N#C/C(=C\c1cccc(NC(=O)c2ccccc2Cl)c1)C(=O)NCCc1ccccc1 | 28.2 µM [falling, single point] | 15.8 µM [falling, single point]
COc1ccc(NC(=O)/C=C/c2ccc(Cl)cc2)cc1 | 4.47 µM [rising, partial curve, poor fit] | 11.2 µM [rising, partial curve]
CSc1nc2ccc(NS(=O)(=O)c3cccc(Cl)c3Cl)cc2s1 | – | 25.1 µM [rising, single point]
Cc1ccc(S(=O)(=O)N/N=C\c2cc([N+](=O)[O-])ccc2Cl)cc1 | – | 11.2 µM [rising, partial curve, poor fit]
COC(=O)c1ccccc1NC(=O)CSc1nc2ccccc2nc1Cc1ccc(F)cc1 | 1 µM [rising, full curve, poor fit] | 0.891 µM [rising, full curve, poor fit]
CCOC(=O)N1CCN(C(=O)C(C)N(c2ccc(Oc3ccccc3)cc2)S(C)(=O)=O)CC1 (stereo unspecified) | 5.01 µM [rising, full curve, poor fit] | 10 µM [rising, partial curve]
NC(=S)N=Nc1c(O)n(CCCl)c2ccc(Cl)cc12 | 5.62 µM [rising, partial curve, poor fit] | 12.6 µM [rising, partial curve]
CC(=O)c1ccc(NC(=O)CN2C(=O)/C(=C/C(C)=C/c3ccccc3)SC2=S)cc1 | – | 6.31 µM [rising, partial curve, poor fit]
COc1ccccc1NC(=O)N1C2CCCC1CC(NC(=O)c1ccccc1)C2 (stereo unspecified) | 0.0251 µM [falling, full curve] | –
CCOC(=O)N1CCN(S(=O)(=O)c2ccc(C(=O)Nc3nnc(C4CC4)o3)cc2)CC1 | – | 35.5 µM [rising, single point]
Cc1nnc(NC(=O)CSc2nccn2Cc2ccccc2)s1 | 0.794 µM [rising, full curve] | 1.41 µM [rising, full curve]
COc1ccc(CNC(=O)c2c(O)c3cccc4c3n(c2=O)CCC4)cc1 | 5.62 µM [rising, partial curve, poor fit] | –
CCCn1c(N2CCN(CC(=O)NCc3cccs3)CC2)nc2ccccc21 | – | 0.0447 µM [rising, full curve, poor fit]
O=S(=O)(c1ccc(NC(=S)Nc2ccc(OC(F)F)cc2)cc1)N1CCOCC1 | – | 15.8 µM [rising, single point]
CN(C(=O)c1ccco1)c1nnc(C23CC4CC(CC(C4)C2)C3)s1 | – | 12.6 µM [rising, single point]
COc1ccc(C(=O)NCC(=O)N/N=C/C(C)=C/c2ccco2)cc1OC | – | 12.6 µM [rising, single point]
Cc1cccc(NC(=S)NC(=O)/C=C/c2ccco2)n1 | – | 35.5 µM [rising, single point]
Cc1ccc(NC(=O)c2cc3c(s2)CCCC3)cc1S(=O)(=O)Nc1ccccc1Cl | 15.8 µM [rising, single point] | 15.8 µM [rising, partial curve]
